Measured values: patent publication US8895499B2 (Polyphor AG, priority 2010, dated 2014)

Test: general procedure: Fmoc solid-phase peptide synthesis; Fmoc-Pro-O-chlorotrityl resin
Conditions: whole synthesis

Substance	final purity (method not given)
PEPTIDE1{W.R.I.[Dab].I.[dR].N.Q.R.L.Q.A.[dP].P}$PEPTIDE1,PEPTIDE1,1:R1-14:R2$$$V2.0	97%
PEPTIDE1{W.R.I.R.I.[dR].L.Q.R.L.Q.A.[dP].P}$PEPTIDE1,PEPTIDE1,1:R1-14:R2$$$V2.0	97%
PEPTIDE1{W.R.I.R.I.[dR].Q.Q.R.L.Q.A.[dP].P}$PEPTIDE1,PEPTIDE1,1:R1-14:R2$$$V2.0	97%
PEPTIDE1{W.R.I.R.I.[D-Dab].N.W.[Dab].N.R.[Dab].[dP].P}$PEPTIDE1,PEPTIDE1,1:R1-14:R2$$$V2.0	95%
PEPTIDE1{W.R.I.R.I.[dR].Y.Q.R.L.Q.A.[dP].P}$PEPTIDE1,PEPTIDE1,1:R1-14:R2$$$V2.0	97%
PEPTIDE1{W.R.I.R.I.[dR].N.H.R.N.R.R.[dP].P}$PEPTIDE1,PEPTIDE1,1:R1-14:R2$$$V2.0	94%
PEPTIDE1{W.R.I.R.I.[dR].N.Q.R.W.Q.A.[dP].P}$PEPTIDE1,PEPTIDE1,1:R1-14:R2$$$V2.0	94%
PEPTIDE1{W.R.I.R.I.[dR].N.K.[Dab].L.R.R.[dP].P}$PEPTIDE1,PEPTIDE1,1:R1-14:R2$$$V2.0	94%
PEPTIDE1{W.R.I.R.I.[dR].N.K.R.N.R.A.[dP].P}$PEPTIDE1,PEPTIDE1,1:R1-14:R2$$$V2.0	95%
PEPTIDE1{W.R.I.R.I.[Dab].N.Q.R.L.Q.A.[dP].P}$PEPTIDE1,PEPTIDE1,1:R1-14:R2$$$V2.0	92%
PEPTIDE1{W.R.I.[Orn].I.[dR].N.Q.R.L.Q.A.[dP].P}$PEPTIDE1,PEPTIDE1,1:R1-14:R2$$$V2.0	97%
PEPTIDE1{W.R.I.R.I.[dR].T.Q.R.L.Q.A.[dP].P}$PEPTIDE1,PEPTIDE1,1:R1-14:R2$$$V2.0	94%
PEPTIDE1{W.[Dab].I.R.I.[dR].N.Q.R.L.Q.A.[dP].P}$PEPTIDE1,PEPTIDE1,1:R1-14:R2$$$V2.0	97%
PEPTIDE1{W.[Orn].I.R.I.[dR].N.Q.R.L.Q.A.[dP].P}$PEPTIDE1,PEPTIDE1,1:R1-14:R2$$$V2.0	97%
PEPTIDE1{W.R.I.R.I.[dR].N.Q.R.Y.Q.A.[dP].P}$PEPTIDE1,PEPTIDE1,1:R1-14:R2$$$V2.0	94%
PEPTIDE1{W.R.I.R.I.[Orn].N.Q.R.L.Q.A.[dP].P}$PEPTIDE1,PEPTIDE1,1:R1-14:R2$$$V2.0	95%
PEPTIDE1{W.R.I.R.I.[dR].N.Q.R.[Cha].Q.A.[dP].P}$PEPTIDE1,PEPTIDE1,1:R1-14:R2$$$V2.0	92%
PEPTIDE1{W.R.I.R.I.[dR].N.K.R.L.R.Q.[dP].P}$PEPTIDE1,PEPTIDE1,1:R1-14:R2$$$V2.0	90%

Some peptides are written in HELM: one residue between dots, names in brackets for other building blocks, links after the first $.
